Reference: PMC7979924
No constants are given. Whether binding was seen depends on the method and setting. For some of these results: In cells and extracts the contact can be indirect. For some of these results: Tags and fused reporters may be left off the sequences shown.

Protein sequences, listed by entry. Tags and fused reporters are not part of them. Lines headed by an entry give the natural chain unless they say otherwise; changes in a name come on top. Residues count along the entry.
UniProt P67809: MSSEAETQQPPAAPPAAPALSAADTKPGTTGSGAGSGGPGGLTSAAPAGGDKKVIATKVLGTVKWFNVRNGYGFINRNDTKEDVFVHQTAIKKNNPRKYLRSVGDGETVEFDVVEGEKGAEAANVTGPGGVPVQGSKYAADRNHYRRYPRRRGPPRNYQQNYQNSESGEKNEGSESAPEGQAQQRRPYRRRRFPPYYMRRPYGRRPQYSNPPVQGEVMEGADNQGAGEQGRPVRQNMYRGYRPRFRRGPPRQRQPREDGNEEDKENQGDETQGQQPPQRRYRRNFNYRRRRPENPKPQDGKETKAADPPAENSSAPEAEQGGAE
YB-1-CSD (1–180 aa.): residues 1-180 of P67809
UniProt P35637, residues 165-385: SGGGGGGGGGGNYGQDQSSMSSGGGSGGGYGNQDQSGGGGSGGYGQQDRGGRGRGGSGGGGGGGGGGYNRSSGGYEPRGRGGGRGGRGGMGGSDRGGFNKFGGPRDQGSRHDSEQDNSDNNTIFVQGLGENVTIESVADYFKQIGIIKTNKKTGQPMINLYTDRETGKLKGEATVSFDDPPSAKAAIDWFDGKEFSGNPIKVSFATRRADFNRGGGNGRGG
UniProt Q13148, residues 101-277: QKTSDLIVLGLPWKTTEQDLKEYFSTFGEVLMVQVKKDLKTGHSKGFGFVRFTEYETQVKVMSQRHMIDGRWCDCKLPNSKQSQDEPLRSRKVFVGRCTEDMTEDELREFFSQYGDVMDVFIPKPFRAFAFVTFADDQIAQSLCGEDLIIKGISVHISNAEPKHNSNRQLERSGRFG

Legend:
[1] = biological target: YB-1-CSD (1–180 aa.) (human) (UniProt P67809); test: native gel or EMSA; Supplementary Fig. S3a; the text speaks of mRNA and of ssDNA, the methods of circular phage ssDNA M13mp18 0.07 μM (agarose 0.8%, TAE 1X) and DNA stem loops; Tris 20 mM pH 7.6, NaCl 40 mM, DTT 0.5 mM, room temperature 30 min; nucleic acid added last; both purified
[2] = biological target: T1, Lin28 – C-ter (truncation, 117–209 aa.) fused to RFP-MBD (human) (UniProt Q9H9Z2); test: microtubule bench assay (a GFP-labelled prey is brought onto microtubules by a bait fused to RFP-MBD); HeLa cells co-expressing bait (RFP-MBD fusion, on microtubules) and GFP-labelled prey for 24 h; fixed with methanol then PFA; Spearman's coefficient or prey versus bait intensity on microtubules
T1 sequence: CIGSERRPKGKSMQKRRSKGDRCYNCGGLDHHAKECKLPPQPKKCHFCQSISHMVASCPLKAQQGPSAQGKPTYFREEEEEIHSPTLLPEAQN

[3] = biological target: T2, GFP-labeled full length LARP6 (UniProt Q9BRS8); test: proximity ligation; HeLa cells expressing the GFP-labelled protein for 24 h; anti-YB-1 and anti-GFP primary antibodies; PLA signal plotted against GFP intensity at the single cell level
T2 sequence: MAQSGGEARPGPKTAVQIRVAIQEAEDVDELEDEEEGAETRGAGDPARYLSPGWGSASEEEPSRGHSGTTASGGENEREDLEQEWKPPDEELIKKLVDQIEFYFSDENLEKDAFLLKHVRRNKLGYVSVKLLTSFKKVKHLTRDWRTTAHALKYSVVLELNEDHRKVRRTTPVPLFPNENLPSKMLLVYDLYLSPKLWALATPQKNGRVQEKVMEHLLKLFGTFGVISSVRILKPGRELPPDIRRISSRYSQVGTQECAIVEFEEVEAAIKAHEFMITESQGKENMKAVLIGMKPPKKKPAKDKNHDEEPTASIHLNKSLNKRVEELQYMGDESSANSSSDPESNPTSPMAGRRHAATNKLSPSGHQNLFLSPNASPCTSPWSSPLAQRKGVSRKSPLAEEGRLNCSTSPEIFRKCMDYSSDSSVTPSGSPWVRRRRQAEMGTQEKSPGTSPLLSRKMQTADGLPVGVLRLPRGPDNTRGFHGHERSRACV

FUS (RRM, 165–385aa.) (from UniProt P35637-1 165-385) (domain or fragment)
binding [1]: no binding

GFP-labeled full length YB-1 (prey) (from UniProt P67809 1-324)
binding [2]: no binding

TDP43 (RRM 1–2, 101–277aa.) (from UniProt Q13148-1 101-277) (domain or fragment)
binding [1]: no binding

endogenous YB-1 (from UniProt P67809 1-324)
binding [3]: no binding
